# Source: PubChem BioAssay AID493014 (National Center for Advancing Translational Sciences (NCATS), 2011)
# The list shows a part of the results. The main result of the screen is listed elsewhere. These columns were measured beside it and carry no call. The list favours compounds with an active or inconclusive main result. Words in brackets tell the shape of the fitted curve; partial curves, single points and poor fits give uncertain potencies.
# Assay: qHTS Assay to Find Inhibitors of Chronic Active B-Cell Receptor Signaling
# Settings: ABC-DLBCL IkBa-CBG/CBR reporter, luminescence ratio (green luciferase fused to IkBa over red control in TMD8 lymphoma cells), 4 h
# Summary of the method: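 Doxycycline induced both beetle luciferases in TMD8 lymphoma cells; IKK-driven degradation limits the IkappaBalpha-fused green signal, while red luminescence normalises for cell number and nonspecific effects. Compounds tested up to 46 uM, 4 hrs.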
# [1] = measured here: CBR red luminescence, cell number
# [2] = measured here: IkBa-CBG green luminescence
SMILES,AC50 [1],AC50 [2]
O=C1CCCC/C1=C/Nc1ccc(C(=O)O)cc1,"1.03 µM [falling, full curve]",
CCCCn1c(N)c(N(CCC(C)C)C(=O)Cc2ccc(S(=O)(=O)N3CCOCC3)s2)c(=O)[nH]c1=O,"1.46 µM [rising, full curve, poor fit]",
N#C/C(=C\Nc1ccccc1O)c1nc2ccccc2o1,"32.6 µM [falling, single point]",
O=C(/C=C/c1ccco1)Nc1ccccn1,"6.51 µM [falling, partial curve]",
COc1cccc(/C=N/Nc2nn3cnnc3c3ccccc23)c1,"0.731 µM [falling, partial curve]",
CN1CCc2c(sc3nc(SCC(N)=O)n(-c4ccccc4)c(=O)c23)C1,"0.146 µM [rising, full curve, poor fit]",
CC(=O)Oc1ccccc1C1=NN(C(=O)/C=C/c2ccccc2)C(c2ccccc2)C1 (stereo not drawn),"14.6 µM [rising, single point]",
CCOC(=O)c1sc(NC(=O)CCN2C(=O)c3ccccc3C2=O)c(C(=O)OCC)c1C,"16.4 µM [rising, partial curve, poor fit]",
O=C(O)c1cc2c(cc1NC(=O)c1ccccc1OC(F)F)OCCCO2,"35.5 µM [falling, single point]",
COc1ccc(-c2csc(Nc3cccc(C)n3)n2)cc1,"14.1 µM [falling, single point]",
Cc1cccc(NC(=O)COc2ccc(Br)cc2)n1,"23.1 µM [falling, partial curve, poor fit]",
Cc1cccc(-c2noc(CCCC(=O)N3CCOCC3)n2)c1,"10.3 µM [rising, partial curve, poor fit]","4.11 µM [rising, full curve, poor fit]"
CCOc1ccccc1N(CC(=O)Nc1ccccc1F)S(=O)(=O)c1ccccc1,"35.5 µM [falling, single point]",
Cc1ccc(Oc2cc([N+](=O)[O-])cc3c2C(=O)Nc2ccccc2O3)cc1,"11.6 µM [rising, partial curve]",
O=S(=O)(c1ccc(-c2nc3ccccc3s2)cc1)N1CCCC1,"0.92 µM [rising, partial curve]",
Cc1cccc(C(=O)NNS(=O)(=O)c2ccc(F)cc2)c1,"8.91 µM [falling, partial curve]",
Cc1ccc2nc(N/N=C\c3ccc([N+](=O)[O-])o3)nc(-c3ccccc3)c2c1,"0.184 µM [falling, full curve, poor fit]",
COc1cc(/C=N/n2cnnc2)ccc1OC(=O)c1cccnc1,"0.82 µM [falling, full curve, poor fit]",
CC(C)(CO)Cc1cc(C(C)(C)C)c(O)c(C(C)(C)C)c1,"18.4 µM [rising, single point]",
CSc1ccccc1NC(=S)NC1CCCC1,"7.08 µM [rising, full curve, poor fit]",
C=CCn1c(=O)c2c3c(sc2n2c(Nc4ccc(OC)cc4)nnc12)CCCC3,"9.2 µM [falling, partial curve, poor fit]",

# Looked up above:
# AC50 [1] with O=C(/C=C/c1ccco1)Nc1ccccn1 reads 6.51 µM [falling, partial curve]
# AC50 [1] with CCOC(=O)c1sc(NC(=O)CCN2C(=O)c3ccccc3C2=O)c(C(=O)OCC)c1C reads 16.4 µM [rising, partial curve, poor fit]

# Additional records follow:

SMILES,AC50 [1],AC50 [2]
CN(C)c1ccc(-c2nnc(-c3cccnc3)o2)cc1,"12.6 µM [falling, partial curve, poor fit]",
O=C1CC(N2CCN(c3ccccc3)CC2)C(=O)N1c1ccc2c(c1)OCO2 (stereo not drawn),"11.2 µM [rising, partial curve, poor fit]",
Cc1nc(/C(N)=N/OC(=O)c2ccc(Cl)cc2)c(C(F)(F)F)o1,"12.6 µM [falling, partial curve, poor fit]",
O=C(CSc1nc(=O)n2ccccc2n1)Nc1cccc2ccccc12,"8.2 µM [falling, partial curve]",
COc1ccccc1CNCc1cc(=O)oc2c(C)c(C)ccc12,"10 µM [rising, partial curve, poor fit]",
CCCn1c(=S)[nH]c2cc(C(=O)N(CCO)Cc3ccccc3)ccc2c1=O,"3.16 µM [falling, full curve]",
O=C(N1CCOCC1)C1(c2ccccc2)CCCCC1,"25.9 µM [rising, single point]",
CC(C)Cc1nnc(NC(=O)c2cc(-c3ccncc3)nc3ccccc23)s1,"0.0891 µM [rising, full curve, poor fit]",
C#CCN(C)CCCOc1ccc(Cl)cc1Cl,"7.31 µM [rising, partial curve, poor fit]",
Cc1cc(C)n(-c2ccc(C(=O)OCC(=O)N(CC(C)C)C3CCS(=O)(=O)C3)cc2)n1 (stereo not drawn),"17.8 µM [falling, single point]",
CCCC(=O)Nc1ccc(Cl)c(NC(=S)NC(=O)c2ccco2)c1,"16.4 µM [falling, partial curve, poor fit]",
C=CCn1c(-c2ccc(Cl)cc2)c[nH]c1=S,"12.6 µM [falling, partial curve]","25.1 µM [falling, single point]"
Cc1onc(-c2c(F)cccc2Cl)c1C(=O)Nc1cccc(S(=O)(=O)NC2=NCCC2)c1,"6.51 µM [rising, partial curve, poor fit]",
CCOc1ccc2nc(SCC(=O)c3ccc(Cl)s3)sc2c1,"11.6 µM [falling, partial curve, poor fit]",
Cn1c(=O)c2c(nc(Sc3ncccn3)n2Cc2ccc(Cl)cc2)n(C)c1=O,"4.11 µM [falling, single point]",
Cc1cccc(-n2nnnc2SCC(=O)NC2CCCC2)c1,"4.61 µM [rising, full curve, poor fit]",
COc1cc(C(=O)Nc2ccc(NC(=O)C3CC3)nc2)cc(OC)c1OC,"5.01 µM [rising, partial curve, poor fit]",
COCCN1CC(O)=C(c2nc3ccccc3c(=O)[nH]2)C1=N,"5.8 µM [rising, partial curve, poor fit]",
CC(CC(=O)N1CCN(c2ccccc2F)CC1)c1ccccc1 (stereo not drawn),"23.1 µM [rising, single point]",
Cc1cs/c(=N\N=C\c2cccc([N+](=O)[O-])c2)n1Cc1ccco1,"1.64 µM [rising, partial curve, poor fit]",
